These results are taken from article PMC10413709.

Protein sequences, listed by entry. Tags and fused reporters are not part of them.
UniProt O15372: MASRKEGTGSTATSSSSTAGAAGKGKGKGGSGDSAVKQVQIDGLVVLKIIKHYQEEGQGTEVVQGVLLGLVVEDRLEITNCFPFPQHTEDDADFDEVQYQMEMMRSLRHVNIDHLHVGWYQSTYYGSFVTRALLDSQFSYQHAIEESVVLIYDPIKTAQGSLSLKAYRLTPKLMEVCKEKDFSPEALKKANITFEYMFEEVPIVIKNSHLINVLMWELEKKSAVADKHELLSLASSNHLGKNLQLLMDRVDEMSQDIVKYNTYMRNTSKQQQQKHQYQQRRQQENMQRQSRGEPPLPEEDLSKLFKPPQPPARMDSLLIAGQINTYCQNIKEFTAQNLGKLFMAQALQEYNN

The target in assay [1] is T1, Myc-OGT full-length (UniProt O15294).
T1 sequence: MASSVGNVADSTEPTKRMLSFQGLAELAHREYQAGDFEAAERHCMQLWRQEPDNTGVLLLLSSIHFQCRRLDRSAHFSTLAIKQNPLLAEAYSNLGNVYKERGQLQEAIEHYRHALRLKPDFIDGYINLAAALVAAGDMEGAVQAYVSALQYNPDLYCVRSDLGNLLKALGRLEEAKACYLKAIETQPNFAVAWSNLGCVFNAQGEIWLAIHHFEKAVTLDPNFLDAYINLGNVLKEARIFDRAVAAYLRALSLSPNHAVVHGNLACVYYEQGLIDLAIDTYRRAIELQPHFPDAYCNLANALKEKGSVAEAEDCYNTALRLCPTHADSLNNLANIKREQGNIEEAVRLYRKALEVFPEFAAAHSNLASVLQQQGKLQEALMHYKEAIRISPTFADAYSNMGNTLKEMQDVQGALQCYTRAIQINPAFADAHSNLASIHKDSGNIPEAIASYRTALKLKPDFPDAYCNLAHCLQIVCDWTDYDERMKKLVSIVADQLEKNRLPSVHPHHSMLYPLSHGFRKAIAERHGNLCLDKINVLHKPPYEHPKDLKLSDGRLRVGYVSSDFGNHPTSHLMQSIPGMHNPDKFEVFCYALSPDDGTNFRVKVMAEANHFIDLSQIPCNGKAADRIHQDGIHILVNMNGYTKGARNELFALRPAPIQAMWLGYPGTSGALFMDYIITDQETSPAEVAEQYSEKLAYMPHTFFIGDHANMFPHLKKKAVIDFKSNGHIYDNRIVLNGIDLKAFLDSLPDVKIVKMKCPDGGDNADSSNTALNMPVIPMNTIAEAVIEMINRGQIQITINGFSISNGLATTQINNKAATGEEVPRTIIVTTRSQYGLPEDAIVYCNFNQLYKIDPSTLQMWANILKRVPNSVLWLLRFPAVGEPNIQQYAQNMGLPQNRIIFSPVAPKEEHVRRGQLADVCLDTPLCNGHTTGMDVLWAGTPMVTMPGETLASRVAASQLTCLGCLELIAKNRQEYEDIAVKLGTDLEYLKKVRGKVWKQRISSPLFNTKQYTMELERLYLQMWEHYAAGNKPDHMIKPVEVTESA
Description: co-IP; HEK293 cells transfected with 2 µg GFP-EIF3H together with Myc-OGT full-length or mutants; NP-40 lysis buffer; precipitated with Myc antibody, detected by GFP antibody.

Assay [2] has as its target eukaryotic translation initiation factor 3 subunit H (EIF3H), endogenous (human (endogenous in LM3)) (UniProt O15372). Description: co-IP; endogenous proteins in LM3 cell lysate; Co-IP lysis buffer, precleared with rabbit IgG, antibody at 4 °C overnight, Protein A/G PLUS-Agarose beads.

These are yes or no findings as the source states them, for the method shown. Binding seen in cells or lysates may run through a third protein. Some entries that bind do so weakly or less than the wild type. For some assays here: Tags and fused reporters may be left off the sequences shown.

In the case of “GFP-EIF3H full-length (from UniProt O15372 1-352)”, the binding entry in assay [1] was “binds”.

B1: O-GlcNAc transferase (OGT), endogenous (protein, UniProt O15294 1-1046)
chain: MASSVGNVADSTEPTKRMLSFQGLAELAHREYQAGDFEAAERHCMQLWRQEPDNTGVLLLLSSIHFQCRRLDRSAHFSTLAIKQNPLLAEAYSNLGNVYKERGQLQEAIEHYRHALRLKPDFIDGYINLAAALVAAGDMEGAVQAYVSALQYNPDLYCVRSDLGNLLKALGRLEEAKACYLKAIETQPNFAVAWSNLGCVFNAQGEIWLAIHHFEKAVTLDPNFLDAYINLGNVLKEARIFDRAVAAYLRALSLSPNHAVVHGNLACVYYEQGLIDLAIDTYRRAIELQPHFPDAYCNLANALKEKGSVAEAEDCYNTALRLCPTHADSLNNLANIKREQGNIEEAVRLYRKALEVFPEFAAAHSNLASVLQQQGKLQEALMHYKEAIRISPTFADAYSNMGNTLKEMQDVQGALQCYTRAIQINPAFADAHSNLASIHKDSGNIPEAIASYRTALKLKPDFPDAYCNLAHCLQIVCDWTDYDERMKKLVSIVADQLEKNRLPSVHPHHSMLYPLSHGFRKAIAERHGNLCLDKINVLHKPPYEHPKDLKLSDGRLRVGYVSSDFGNHPTSHLMQSIPGMHNPDKFEVFCYALSPDDGTNFRVKVMAEANHFIDLSQIPCNGKAADRIHQDGIHILVNMNGYTKGARNELFALRPAPIQAMWLGYPGTSGALFMDYIITDQETSPAEVAEQYSEKLAYMPHTFFIGDHANMFPHLKKKAVIDFKSNGHIYDNRIVLNGIDLKAFLDSLPDVKIVKMKCPDGGDNADSSNTALNMPVIPMNTIAEAVIEMINRGQIQITINGFSISNGLATTQINNKAATGEEVPRTIIVTTRSQYGLPEDAIVYCNFNQLYKIDPSTLQMWANILKRVPNSVLWLLRFPAVGEPNIQQYAQNMGLPQNRIIFSPVAPKEEHVRRGQLADVCLDTPLCNGHTTGMDVLWAGTPMVTMPGETLASRVAASQLTCLGCLELIAKNRQEYEDIAVKLGTDLEYLKKVRGKVWKQRISSPLFNTKQYTMELERLYLQMWEHYAAGNKPDHMIKPVEVTESA
Consider B1, for which, in assay [2], the binding entry is on record as “binds”.
